The text below walks through data of article PMC6240084.

By UniProt entry, the sequences of proteins in these tests, tags left out. Where a name states a change or a piece, a line headed by the entry shows the natural chain unless it says otherwise. Chains listed by the source or under a name are the forms on record and can include a tag or linker.
UniProt P0DMV9: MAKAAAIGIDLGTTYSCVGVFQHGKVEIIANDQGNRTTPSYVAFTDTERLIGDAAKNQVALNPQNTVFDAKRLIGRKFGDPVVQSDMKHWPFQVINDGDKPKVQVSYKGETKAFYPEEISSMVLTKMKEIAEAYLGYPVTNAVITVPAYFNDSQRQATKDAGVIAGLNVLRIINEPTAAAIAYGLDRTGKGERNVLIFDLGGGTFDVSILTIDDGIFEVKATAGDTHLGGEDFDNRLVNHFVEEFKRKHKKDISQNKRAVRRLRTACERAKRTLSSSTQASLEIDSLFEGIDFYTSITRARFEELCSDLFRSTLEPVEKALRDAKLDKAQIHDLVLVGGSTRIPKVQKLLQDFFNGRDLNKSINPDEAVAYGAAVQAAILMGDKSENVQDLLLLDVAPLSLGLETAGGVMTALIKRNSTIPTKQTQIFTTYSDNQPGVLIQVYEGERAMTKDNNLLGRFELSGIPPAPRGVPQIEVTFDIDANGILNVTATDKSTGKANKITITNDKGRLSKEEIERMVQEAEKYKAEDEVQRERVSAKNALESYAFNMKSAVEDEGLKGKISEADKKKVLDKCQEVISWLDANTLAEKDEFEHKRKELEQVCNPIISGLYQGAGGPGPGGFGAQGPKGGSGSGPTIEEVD
UniProt Q9UNE7: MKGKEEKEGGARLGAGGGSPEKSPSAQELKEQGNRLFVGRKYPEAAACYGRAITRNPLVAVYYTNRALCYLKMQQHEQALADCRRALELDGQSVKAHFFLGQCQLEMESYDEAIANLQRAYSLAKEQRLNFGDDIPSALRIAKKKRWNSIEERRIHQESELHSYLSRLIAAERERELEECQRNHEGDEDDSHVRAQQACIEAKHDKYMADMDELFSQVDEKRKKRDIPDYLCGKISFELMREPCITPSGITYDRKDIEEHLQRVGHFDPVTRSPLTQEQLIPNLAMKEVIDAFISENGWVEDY
UniProt P10275: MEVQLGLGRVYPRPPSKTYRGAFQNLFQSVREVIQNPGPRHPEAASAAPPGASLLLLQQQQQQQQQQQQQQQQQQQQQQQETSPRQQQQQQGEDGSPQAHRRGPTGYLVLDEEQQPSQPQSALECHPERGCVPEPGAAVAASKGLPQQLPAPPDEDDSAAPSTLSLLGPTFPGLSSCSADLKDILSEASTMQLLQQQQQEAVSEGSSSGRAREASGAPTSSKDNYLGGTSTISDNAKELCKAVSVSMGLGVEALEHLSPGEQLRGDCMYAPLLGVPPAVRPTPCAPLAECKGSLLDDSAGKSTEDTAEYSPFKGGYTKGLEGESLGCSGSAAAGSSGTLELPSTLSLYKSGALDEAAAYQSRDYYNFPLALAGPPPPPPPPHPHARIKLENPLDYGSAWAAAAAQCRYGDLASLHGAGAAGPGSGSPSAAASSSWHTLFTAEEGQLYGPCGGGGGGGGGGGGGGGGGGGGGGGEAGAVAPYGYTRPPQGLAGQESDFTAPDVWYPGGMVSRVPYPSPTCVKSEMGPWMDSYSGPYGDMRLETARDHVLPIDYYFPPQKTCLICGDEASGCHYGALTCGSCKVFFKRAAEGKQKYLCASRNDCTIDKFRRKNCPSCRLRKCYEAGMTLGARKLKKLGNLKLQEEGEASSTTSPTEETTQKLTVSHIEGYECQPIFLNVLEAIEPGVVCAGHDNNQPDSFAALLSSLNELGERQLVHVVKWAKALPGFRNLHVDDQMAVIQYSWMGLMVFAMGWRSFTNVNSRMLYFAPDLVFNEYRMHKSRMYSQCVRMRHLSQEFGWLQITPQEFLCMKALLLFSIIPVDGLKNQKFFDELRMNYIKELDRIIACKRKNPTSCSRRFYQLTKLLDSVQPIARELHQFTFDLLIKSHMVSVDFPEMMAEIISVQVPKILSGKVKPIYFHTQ
AR-V7 (P10275-3, form named): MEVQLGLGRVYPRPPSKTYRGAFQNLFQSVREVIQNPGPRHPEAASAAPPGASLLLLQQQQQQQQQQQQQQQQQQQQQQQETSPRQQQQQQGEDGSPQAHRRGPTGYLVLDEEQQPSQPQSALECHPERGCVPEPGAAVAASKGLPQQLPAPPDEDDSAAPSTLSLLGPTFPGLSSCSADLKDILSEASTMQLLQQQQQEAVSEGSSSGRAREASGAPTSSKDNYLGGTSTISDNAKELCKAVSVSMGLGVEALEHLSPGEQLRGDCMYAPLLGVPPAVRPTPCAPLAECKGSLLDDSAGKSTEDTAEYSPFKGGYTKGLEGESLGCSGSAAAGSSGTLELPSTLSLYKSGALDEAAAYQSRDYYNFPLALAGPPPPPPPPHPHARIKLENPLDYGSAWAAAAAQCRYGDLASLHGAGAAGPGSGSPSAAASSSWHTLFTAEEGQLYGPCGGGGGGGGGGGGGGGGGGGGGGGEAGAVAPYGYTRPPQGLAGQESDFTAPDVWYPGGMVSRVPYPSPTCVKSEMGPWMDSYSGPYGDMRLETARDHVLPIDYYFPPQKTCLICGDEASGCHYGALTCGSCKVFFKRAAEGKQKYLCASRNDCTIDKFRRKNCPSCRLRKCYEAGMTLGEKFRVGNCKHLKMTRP

No constants are given. Whether binding was seen depends on the method and setting. In cells and extracts the contact can be indirect. Some entries that bind do so weakly or less than the wild type.

The target of assay [1] is HSP70 (HSPA1B, OriGene, Catalog# SC116767) (UniProt P0DMV9). Nature of the assay: co-IP; 293 cells transiently transfected with Flag-STUB1 or HSP70 with or without AR-FL, AR-V1, AR-V3, AR-V7, AR-V9 or AR-V12 for 3 days; whole cell lysates (1500 µg) immunoprecipitated with anti-Flag or anti-HSP70 antibody and protein A/G agarose overnight; washed with 10 mM HEPES pH 7.9, 1 mM EDTA, 150 mM NaCl, 1% Nonidet P-40; western blot. On the technique in general: A western blot detects proteins with antibodies after separation by electrophoresis.

For assay [2], the target named is Flag-STUB1 (UniProt Q9UNE7). The description is as above.
Assay [3] addresses HSP70 (HSPA1B, OriGene, Catalog# SC116767) (UniProt P0DMV9). Nature of the assay: co-IP; 293 cells co-transfected with HSP70 and AR-V7 (or AR-FL) with or without Flag-STUB1 for 3 days; whole cell lysates immunoprecipitated with anti-HSP70 antibody; western blot.
For assay [4], the target named is Flag-STUB1 (UniProt Q9UNE7). The assay is described as follows: co-IP; 293 cells co-transfected with Flag-STUB1, AR-V7 and HA-Ub with or without HSP70 for 3 days; whole cell lysates immunoprecipitated with anti-Flag antibody; western blot; also AR-V7, HSP70 and Flag-STUB1 overexpressed and cells treated with APO or VER overnight (the inhibitors increased the binding).

Turning to “AR-FL (full-length AR) (from UniProt P10275 1-920) (receptor)”, the binding result in assay [1], in assay [2] and in assay [3] was “binds” each time.

For the substance AR-V7 (from UniProt P10275-3 1-644), the binding result in assay [1], in assay [2], in assay [3] and in assay [4] was “binds” each time.

As to “Flag-STUB1 (from UniProt Q9UNE7 1-303) (enzyme)”, the binding entry in assay [1] is “binds”.
